According to PubChem BioAssay AID485353 (National Center for Advancing Translational Sciences (NCATS), 2010):
Screen size: about 330,000 compounds; about 610 (0.18%) were called active. Inconclusive means that the source gave no clear call. Such entries were picked first, then a sample of the others. The call rests on the fitted dose curve. Potencies beside an inconclusive call are fits to weak or partial responses and may not hold up. Peptide text beside a SMILES is read from it. * marks the point of attachment. Bz = O=C(c1ccccc1)*

Assay: qHTS of Yeast-based Assay for SARS-CoV PLP; further: nearly all actives have a fitted effect of over 55% in size; on activity, positive = growth rescue: 0% is about no effect
Conditions: S. cerevisiae expressing SARS-CoV PLpro; Potency: growth rescue; activity, positive = growth rescue: at 32.9 µM (top of the series)
Potency means the concentration at half of the fitted maximal effect.

Compound | activity, positive = growth rescue | Potency
O=C(COc1ccc(Cl)cc1Br)N1CCN(c2ncccn2)CC1 | inactive: 0.503% | 
COCCNC(=O)c1ccc2c(=O)n(CCOC)c(=O)[nH]c2c1 | inactive: -6.39% | 
O=C(CNc1ccccc1)N/N=C/c1cc([N+](=O)[O-])ccc1N1CCCC1 |  | inconclusive: 1 µM [activator, partial curve]
Cc1ccc2nc(-c3ccc(NC(=O)COC(=O)c4ccco4)cc3)sc2c1 |  | inconclusive: 12.6 µM [activator, single point]
O=C(CCSc1ccc(Cl)cc1)c1ccco1 | inactive: -1.48% | 
CCNc1nc(NOC)nc(OCC#N)n1 |  | inconclusive: 20 µM [activator, single point]
CCCC(=O)NC(c1ccc(C)cc1)c1ccc2cccnc2c1O (stereo not given) |  | inconclusive: 3.55 µM [activator, single point]
O=C(Oc1ccc(=O)n(-c2ccccc2)n1)c1ccccc1 |  | inconclusive: 10 µM [activator, partial curve]
C=CCc1cc(OC)ccc1OCCCCn1cncn1 |  | inconclusive: 20 µM [activator, single point]
O=C(OCn1ncc(Cl)c(Cl)c1=O)c1ccc(F)cc1 | inactive: -29.7% | 
CC(C)C(=O)Nc1ccc(C(=O)NCc2cccnc2)cc1 |  | inconclusive: 2.82 µM [activator, partial curve]
O=C1/C(=C/c2ccc([N+](=O)[O-])cc2)C=C(c2ccccc2)N1c1ccc(O)cc1 | inactive: -8.06% | 
C/C(=N\NC(=O)c1cc(O)cc(O)c1)c1ccc(NC(=O)Cc2ccccc2)cc1 |  | inconclusive: 3.98 µM [activator, single point]
CCCCNC(=O)C(NS(=O)(=O)c1cccc2nsnc12)c1ccccc1 (stereo not given) |  | inconclusive: 2.24 µM [activator, full curve]
Cc1ccc2c(c1)N(C(=O)CCC(=O)NCc1cccnc1)CCO2 |  | inconclusive: 2.82 µM [activator, single point]
CC(C)c1c(C(=O)N/N=C/c2cccnc2)nnn1-c1nonc1N |  | inconclusive: 11.2 µM [activator, partial curve]
CS(=O)(=O)N1CCN(c2ccccc2NC(=O)Cc2ccc(Cl)cc2)CC1 |  | inconclusive: 4.47 µM [activator, single point]
Cc1ccc2nc(NNC(=O)c3ccc(S(=O)(=O)N4CCc5ccccc5C4)cc3)sc2c1 |  | active: 5.01 µM
O=C(NC(Cc1ccccc1)C(=O)N1CCCC1C(=O)O)c1ccccc1 (stereo not drawn) (Bz-Phe-Pro-OH; configuration not given here) |  | inconclusive: 3.98 µM [activator, single point]
CCCOc1ccccc1/C=C1\SC(N)=NC1=O |  | inconclusive: 4.47 µM [activator, single point]
COCc1cc(CN2CCN(C)CC2)c(O)c2ncccc12 |  | inconclusive: 22.4 µM [activator, partial curve]
Cc1ccc(N(C(=O)c2csnn2)C(C(=O)NC(C)(C)C)c2cccs2)cc1 (stereo not given) |  | inconclusive: 4.47 µM [activator, partial curve]
Cc1ccc(N2CCN(c3cc(C)nc4c5c(C)cc(C)nc5nn34)CC2)cc1 |  | inconclusive: 4.47 µM [activator, single point]

Compound | activity, positive = growth rescue | Potency
Cc1ccc(NC(=O)COC(=O)c2ccco2)cc1C | inactive: -5.95% | 
CSc1ccccc1NC(=O)Nc1cccc(Cl)c1Cl | inactive: 0.489% | 
COC(=O)C(NC(=O)c1ccc(F)cc1)(Nc1nc(C)cs1)C(F)(F)F (stereo not given) |  | inconclusive: 4.47 µM [activator, single point]
CCSc1nc2ccccc2n1CCOc1ccccc1 |  | inconclusive: 5.01 µM [activator, full curve, poor fit]
Cc1ccccc1NC(=O)CN1C(=O)COc2ccc(S(=O)(=O)N3CCCC3)cc21 |  | inconclusive: 4.47 µM [activator, single point]
O=C(Nc1ccc(Br)cc1)c1cccn1-c1ncc(C(F)(F)F)cc1Cl |  | inconclusive: 3.55 µM [activator, single point]
Cc1nc2ccccn2c1C(=O)NNC(=O)Nc1ccccc1 |  | inconclusive: 20 µM [activator, single point]
O=C1CCCC/C1=C\Nc1ccc(Cl)cn1 |  | inconclusive: 11.2 µM [activator, single point]
N#C/C(=C(/O)COC(=O)CSc1ccc2ccccc2c1)c1nc2ccccc2[nH]1 |  | inconclusive: 7.94 µM [activator, partial curve]
CCOC(=O)C1CCN(Cc2ccc(O)c3ncccc23)CC1 |  | inconclusive: 20 µM [activator, single point]
O=C(NCc1ccccc1)C1=C[C@H](c2ccc3c(c2)OCO3)C[C@H](OCCCCO)O1 | inactive: -1.2% | 
COc1ccc2c(c1)c(N=NC(N)=S)c(O)n2CC(=O)c1ccccc1 | inactive: 8.37% | 
Cn1nccc1C(=O)N1CCN(C23CC4CC(CC(C4)C2)C3)CC1 |  | inconclusive: 3.16 µM [activator, single point]
Cc1cc(=O)oc2cc(NC(=O)c3cccc(Br)c3)ccc12 |  | inconclusive: 20 µM [activator, single point]
CCNC(=S)N(Cc1ccc2c(c1)OCO2)C1CC(=O)N(c2ccc(F)cc2)C1=O (stereo not given) | inactive: -2.95% | 
CCC1CN(C(=O)N2CCC(C(=O)Nc3ccccc3OC)CC2)c2ccccc2O1 (stereo not given) |  | inconclusive: 3.55 µM [activator, full curve]
COc1ccc(C(=O)N2CCN(C3CCN(Cc4ccccc4)CC3)CC2)cc1OC | inactive: 2.22% | 
COc1ccc(S(=O)(=O)Nc2ccccn2)cc1OC |  | inconclusive: 3.98 µM [activator, single point]
Cc1ccc(C)c(C(C)NC(=O)c2ccccc2Br)c1 (stereo not given) |  | inconclusive: 22.4 µM [activator, single point]
CC1(C)Cc2c(sc(NC(=O)C(=O)NCC3CCCO3)c2C(=O)O)CO1 (stereo not given) |  | inconclusive: 4.47 µM [activator, partial curve]
Oc1ccccc1CNc1ccc2c(c1)OCCO2 | inactive: -0.674% | 
CCOc1cccc(C(=O)NC(=S)Nc2cccc(C)c2)c1 |  | inconclusive: 20 µM [activator, single point]

Three structures out of the list, ordered by number of heavy atoms, high to low:
Compound | activity, positive = growth rescue | Potency
CCC1CN(C(=O)N2CCC(C(=O)Nc3ccccc3OC)CC2)c2ccccc2O1 (stereo not given) |  | inconclusive: 3.55 µM [activator, full curve]
CCOC(=O)C1CCN(Cc2ccc(O)c3ncccc23)CC1 |  | inconclusive: 20 µM [activator, single point]
COc1ccc(S(=O)(=O)Nc2ccccn2)cc1OC |  | inconclusive: 3.98 µM [activator, single point]
